# Results published in patent US20240325336A1, “COMBINATION THERAPIES COMPRISING OXYGEN-CONTAINING STRUCTURALLY ENHANCED FATTY ACIDS FOR TREATMENT OF NON-ALCOHOLIC STEATOHEPATITIS” (NORTHSEA THERAPEUTICS B.V., priority 2020, published 2024).
# Entries after “also recorded” stand apart in the source; their conditions may differ. At least one structure is not confirmed: it was looked up by name or label, or the drawing left a doubt.
# Experiments:
# Assay type in all cases: in vivo
# [1] = CDAA/high-fat diet NASH mouse model: relative body weight and liver weight; details: CDAA-HFD mice, 8 weeks QD; compared to vehicle (FIG. 1A)
# Excerpt: (§1) Although the widely used methionine-choline deficient (MCD) diet consistently reproduces severe NASH-like hepatic inflammation and fibrosis in mice, it is also associated with severe weight-loss (loss of both skeletal muscle and fat mass). This is associated with an increased risk of death which presents major problems for long-term fibrogenesis experiments. […] In the current study, male mice (strain C57BI/6JRj) were fed choline deficient high-fat diets (45% of total calories from fat; “CDAA/high-fat” or “CDAA-HFD”). The NASH inducing diet was instigated 6 weeks prior to the commencement of administration of active agents in order to evaluate treatment and reversal of NASH parameters. The NASH inducing CDAA-HFD was continued for the 8 weeks of administration of the indicated active agents and combinations thereof.
# (§2) The aim of this study was to evaluate the effects of 8 weeks of administration of Compound A, OCA, semaglutide, and firsocostat alone and in combination on metabolic parameters, hepatic pathology, and on NAFLD Activity Score including Fibrosis Stage in male CDAA-HFD mice.
# (§3) Prior to administration of the activate agents, animals were randomized into treatment groups based on body weight. […] Terminal liver biopsy were analyzed for histopathological scores. Terminal quantitative endpoints included plasma/liver biochemistry and liver histomorphometry.
# male CDAA-HFD mice [2] = assay: CDAA/high-fat diet NASH mouse model: plasma triglycerides and total cholesterol; details: 8 weeks QD
# Excerpt: as §1, §2, §3
# male CDAA-HFD mice [3] = assay: CDAA/high-fat diet NASH mouse model: liver total cholesterol and triglycerides; details: 8 weeks QD
# Excerpt: as §1, §2, §3
# male CDAA-HFD mice [4] = assay: CDAA/high-fat diet NASH mouse model: hepatic steatosis (H&E image analysis, steatosis score); details: 8 weeks QD, compared to untreated vehicle group (FIG. 5A)
# Excerpt: (§4) Although the widely used methionine-choline deficient (MCD) diet consistently reproduces severe NASH-like hepatic inflammation and fibrosis in mice, it is also associated with severe weight-loss (loss of both skeletal muscle and fat mass). This is associated with an increased risk of death which presents major problems for long-term fibrogenesis experiments. […] In the current study, male mice (strain C57BI/6JRj) were fed choline deficient high-fat diets (45% of total calories from fat; “CDAA/high-fat” or “CDAA-HFD”). The NASH inducing diet was instigated 6 weeks prior to the commencement of administration of active agents in order to evaluate treatment and reversal of NASH parameters. […]
# as §3
# Liver samples stained with Hematoxylin and Eosin (H&E) or Picro Sirius Red (PSR) were scored for NAS components (steatosis, lobular inflammation, and ballooning degeneration) and fibrosis stage respectively using the clinical criteria outlined by Kleiner et al., Hepatology, 2005; 41. […]
# Scanned H&E stained slides were analyzed in several steps: • 1. […]
# Steatosis score was calculated as percentage of hepatocytes with lipid droplets. […]
# male CDAA-HFD mice [5] = assay: CDAA/high-fat diet NASH mouse model: hepatic fibrosis markers (hydroxyproline, galectin-3, PSR, α-SMA); details: 8 weeks QD
# Excerpt: as §4, §3
# Scanned PSR stained slides were analyzed in several steps: • 1. […] Fibrosis fibers were detected using the linear Bayesian image analysis method in the periportal and sinusoidal zones. • 3. Bridging was detected using threshold image analysis based on a polynomial local linear filter feature. • 4. […]
# The quantitation of IHC-positive staining is calculated as an area fraction as follows: […]
structure (smiles),measurement,setting,value
"CC[C@H]1[C@@H](O)[C@@H]2[C@H](CC[C@]3(C)[C@@H]([C@H](C)CCC(=O)O)CC[C@@H]23)[C@@]2(C)CC[C@@H](O)C[C@@H]12 [OCA, obeticholic acid]",last recorded relative body weight,[1],decreased
same,plasma triglycerides,male CDAA-HFD mice [2]; compared to untreated vehicle group (FIG. 3A),significantly decreased
same,plasma total cholesterol,male CDAA-HFD mice [2]; compared to untreated vehicle group (FIG. 3B),significantly decreased
same,relative levels of liver total cholesterol (normalized to liver weight),male CDAA-HFD mice [3]; compared to untreated vehicle group (FIG. 4A),significant decrease
same,relative levels of liver triglycerides (normalized to liver weight),male CDAA-HFD mice [3]; compared to untreated vehicle group (FIG. 4B),significant decrease
same,hepatic steatosis area (relative liver lipids),male CDAA-HFD mice [4],significant relative decrease; also recorded: significantly greater
same,relative liver hydroxyproline content (normalized to liver weight),male CDAA-HFD mice [5]; compared to untreated vehicle group (FIG. 9A),all of the treatment groups except the group administered OCA showed a significant decrease
same,hepatic area expressing α-SMA,male CDAA-HFD mice [5]; compared to untreated vehicle group (FIG. 11B),neither Compound A nor OCA significantly affecting
